Our source for the binding values is paper PMC10834586.

Chains of the proteins cited; added tags and fusions are not shown. Lines headed by an entry give the natural chain unless they say otherwise; changes in a name come on top. A line that says so, or that is headed by a name, gives the form on record, which may keep a tag or linker. Residues count along the entry.
UniProt Q16665: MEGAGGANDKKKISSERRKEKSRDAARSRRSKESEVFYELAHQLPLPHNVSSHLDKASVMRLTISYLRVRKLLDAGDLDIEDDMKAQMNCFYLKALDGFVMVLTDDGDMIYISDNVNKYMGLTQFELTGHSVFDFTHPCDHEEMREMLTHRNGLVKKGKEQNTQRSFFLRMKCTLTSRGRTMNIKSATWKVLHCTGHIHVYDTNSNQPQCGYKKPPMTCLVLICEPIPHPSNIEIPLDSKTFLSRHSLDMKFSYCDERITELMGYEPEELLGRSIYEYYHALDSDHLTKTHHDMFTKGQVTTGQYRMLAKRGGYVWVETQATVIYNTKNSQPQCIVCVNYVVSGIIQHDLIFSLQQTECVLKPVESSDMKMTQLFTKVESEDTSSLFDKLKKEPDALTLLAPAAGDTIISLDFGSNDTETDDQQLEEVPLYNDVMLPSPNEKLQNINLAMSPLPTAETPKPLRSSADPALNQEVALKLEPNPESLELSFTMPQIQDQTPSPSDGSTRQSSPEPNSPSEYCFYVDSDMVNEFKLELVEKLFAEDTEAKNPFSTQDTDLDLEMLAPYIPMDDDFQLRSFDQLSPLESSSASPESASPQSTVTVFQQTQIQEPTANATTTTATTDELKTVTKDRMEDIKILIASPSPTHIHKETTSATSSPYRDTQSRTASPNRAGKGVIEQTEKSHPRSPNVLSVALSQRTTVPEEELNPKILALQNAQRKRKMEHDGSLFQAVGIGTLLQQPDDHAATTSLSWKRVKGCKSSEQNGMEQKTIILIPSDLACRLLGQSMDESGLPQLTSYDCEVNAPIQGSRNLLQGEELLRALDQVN
GFP-HIF-1α SD-SA (Q16665, form named): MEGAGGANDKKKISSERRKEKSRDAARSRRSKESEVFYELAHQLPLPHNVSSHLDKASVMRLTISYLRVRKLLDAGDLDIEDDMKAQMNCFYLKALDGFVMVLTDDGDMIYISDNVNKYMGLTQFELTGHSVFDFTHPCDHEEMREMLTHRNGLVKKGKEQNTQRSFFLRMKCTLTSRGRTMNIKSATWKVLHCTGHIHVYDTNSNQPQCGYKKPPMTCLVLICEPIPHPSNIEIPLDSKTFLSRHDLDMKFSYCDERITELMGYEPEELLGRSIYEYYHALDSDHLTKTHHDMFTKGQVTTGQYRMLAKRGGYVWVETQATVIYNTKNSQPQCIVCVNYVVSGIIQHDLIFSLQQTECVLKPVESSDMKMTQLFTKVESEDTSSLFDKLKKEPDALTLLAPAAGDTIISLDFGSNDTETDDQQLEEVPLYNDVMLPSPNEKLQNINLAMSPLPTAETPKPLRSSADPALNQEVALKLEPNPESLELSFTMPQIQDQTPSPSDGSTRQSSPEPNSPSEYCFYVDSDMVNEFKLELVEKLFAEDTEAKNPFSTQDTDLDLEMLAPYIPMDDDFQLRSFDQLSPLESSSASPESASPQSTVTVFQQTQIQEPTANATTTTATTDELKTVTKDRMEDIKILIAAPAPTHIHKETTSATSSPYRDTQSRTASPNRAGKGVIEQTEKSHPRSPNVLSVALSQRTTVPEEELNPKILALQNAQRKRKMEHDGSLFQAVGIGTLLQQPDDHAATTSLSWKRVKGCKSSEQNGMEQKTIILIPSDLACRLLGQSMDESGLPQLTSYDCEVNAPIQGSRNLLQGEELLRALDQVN
GFP-HIF-1α S641/643A (Q16665, form named): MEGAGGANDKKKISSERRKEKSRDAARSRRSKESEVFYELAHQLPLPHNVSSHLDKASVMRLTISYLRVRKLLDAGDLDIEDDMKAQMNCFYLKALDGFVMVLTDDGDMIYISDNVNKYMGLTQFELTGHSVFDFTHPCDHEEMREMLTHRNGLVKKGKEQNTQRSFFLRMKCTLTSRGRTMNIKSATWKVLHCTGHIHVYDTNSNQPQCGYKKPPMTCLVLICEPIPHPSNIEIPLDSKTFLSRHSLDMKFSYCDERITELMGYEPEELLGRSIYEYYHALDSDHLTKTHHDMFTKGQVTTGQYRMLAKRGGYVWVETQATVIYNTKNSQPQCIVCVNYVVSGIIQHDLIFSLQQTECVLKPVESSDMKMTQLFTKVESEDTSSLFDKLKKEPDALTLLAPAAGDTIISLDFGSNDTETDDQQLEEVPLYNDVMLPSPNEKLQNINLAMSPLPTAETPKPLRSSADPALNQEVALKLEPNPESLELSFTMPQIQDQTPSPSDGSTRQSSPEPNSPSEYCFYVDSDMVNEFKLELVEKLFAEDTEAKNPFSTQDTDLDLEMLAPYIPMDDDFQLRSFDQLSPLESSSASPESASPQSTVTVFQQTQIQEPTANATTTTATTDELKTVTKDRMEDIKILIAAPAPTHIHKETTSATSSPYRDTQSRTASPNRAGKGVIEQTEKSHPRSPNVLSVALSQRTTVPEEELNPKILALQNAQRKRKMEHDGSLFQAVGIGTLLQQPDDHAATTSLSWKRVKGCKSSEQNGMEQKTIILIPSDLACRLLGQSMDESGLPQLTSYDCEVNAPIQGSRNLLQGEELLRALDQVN
UniProt P38646, residues 47-679: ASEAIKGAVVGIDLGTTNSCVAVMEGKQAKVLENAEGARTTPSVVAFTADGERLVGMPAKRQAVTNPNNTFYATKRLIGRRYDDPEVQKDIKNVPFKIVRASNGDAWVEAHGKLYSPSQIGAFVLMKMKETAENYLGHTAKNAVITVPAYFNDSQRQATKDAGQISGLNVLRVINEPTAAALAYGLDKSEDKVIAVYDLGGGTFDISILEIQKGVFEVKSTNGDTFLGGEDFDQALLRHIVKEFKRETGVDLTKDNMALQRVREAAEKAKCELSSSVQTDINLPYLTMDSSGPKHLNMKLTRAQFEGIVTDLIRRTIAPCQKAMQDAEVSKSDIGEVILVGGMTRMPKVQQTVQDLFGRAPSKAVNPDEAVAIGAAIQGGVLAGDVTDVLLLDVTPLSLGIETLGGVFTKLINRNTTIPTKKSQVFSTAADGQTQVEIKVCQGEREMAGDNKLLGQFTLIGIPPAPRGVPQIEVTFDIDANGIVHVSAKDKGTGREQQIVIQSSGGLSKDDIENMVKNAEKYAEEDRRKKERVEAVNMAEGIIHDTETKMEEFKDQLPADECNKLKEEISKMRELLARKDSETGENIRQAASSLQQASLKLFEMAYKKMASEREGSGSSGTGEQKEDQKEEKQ

These are yes or no findings as the source states them, for the method shown. Binding seen in cells or lysates may run through a third protein. Some entries that bind do so weakly or less than the wild type.

The target in one assay is GFP-HIF-1α SD-SA (UniProt Q16665). The assay is described as follows: co-IP; anti-GFP immunoprecipitation from lysates of transfected HeLa HIF1A−/− cells grown under hypoxia (1% O2); HNMT buffer, 16 h at 4 °C; immunoblot. (Immunoblotting shows a protein as a band on a membrane.)
The next assay addresses GFP-HIF-1α S641/643A (UniProt Q16665). Described as above.

In the case of mortalin (from UniProt P38646 47-679), the binding entry in the assay with GFP-HIF-1α SD-SA and with GFP-HIF-1α S641/643A was “binds” each time.
